{"sequences": {"note": "Protein sequences, listed by entry. Tags and fused reporters are not part of them.", "UniProt P08659, whole entry, looked up": "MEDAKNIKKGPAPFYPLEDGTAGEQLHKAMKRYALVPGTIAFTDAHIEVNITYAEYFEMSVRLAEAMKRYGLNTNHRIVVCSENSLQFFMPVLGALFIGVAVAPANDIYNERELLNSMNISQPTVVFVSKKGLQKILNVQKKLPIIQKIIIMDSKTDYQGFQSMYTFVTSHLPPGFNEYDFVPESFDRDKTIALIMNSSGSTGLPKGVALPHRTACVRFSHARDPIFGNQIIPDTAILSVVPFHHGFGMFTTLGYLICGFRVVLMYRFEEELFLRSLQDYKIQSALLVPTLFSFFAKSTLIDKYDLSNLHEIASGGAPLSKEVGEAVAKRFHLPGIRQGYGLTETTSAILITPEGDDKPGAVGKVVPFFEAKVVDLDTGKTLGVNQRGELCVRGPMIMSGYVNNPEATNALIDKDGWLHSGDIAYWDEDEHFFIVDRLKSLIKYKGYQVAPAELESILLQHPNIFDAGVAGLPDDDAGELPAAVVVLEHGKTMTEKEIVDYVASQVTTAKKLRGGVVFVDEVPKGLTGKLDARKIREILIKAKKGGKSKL"}, "source": "PubChem BioAssay AID1963318", "about": "(National Center for Advancing Translational Sciences (NCATS), 2024)", "note": "Among all 1,300 compounds or so, about 100 (7.7%) were called active. Not shown: some 19% with an inconclusive outcome. Calls follow the shape of the dose curve; as a rule, active = well fitted activation curve with a large enough effect; inconclusive = small, poorly fitted or top-dose-only effect; inactive = no such curve, though single readings can be large or run the other way. The entries are a selection whose mix differs from that of the whole data set.", "data": [{"target": "Luciferin 4-monooxygenase (Photinus pyralis) (UniProt P08659)", "experiment": "Firefly luciferase (FLuc-C-HiBiT) SDR gain of signal screen - without ATP; also: nearly all actives have a fitted effect of over 55% in size", "conditions": "Purified FLuc-C-HiBiT, Nano-Glo HiBiT luminescence, no ATP; at 49.3 µM (top of the series)", "description": "PI: James Inglese Ph.D. National Center for Advancing Translational Sciences (NCATS), National Institute of Health (NIH), Maryland Discovery and optimization of novel protein-binding ligands underlies many of the methods and applications of biology, drug discovery, clinical diagnostics, and environmental toxicology. Assays for detecting the interaction of, for example, a molecule with a macromolecular target also referred to here as the target of interest (TOI) is dependent on a compatible output technology. Depending on the nature and knowledge surrounding the TOI, whether a receptor, enzyme, regulatory subunit or scaffold, or a sequence-defined nucleic acid folded into a complex tertiary structure, assay strategies can vary widely. Here we exploit ligand-biased changes in the structural dynamics of the target protein to control reporter alpha complementation allowing a non-competitive, non-functional, non-separation measure of ligand-target interaction. […]\n1. […] HiBiT SDR assay measured using CCD-based camera (ViewLux) with settings as follows: Exposure, 1 sec; Gain, High; Speed, Slow; Binning, 2X. […]", "values": [{"compound": "CN1CCNc2cc(-c3ccc([S+](C)(=O)[O-])cc3)ncc2C1", "activation (signal gain)": "inactive: 15.2%"}]}]}
